Some of the results follow. Most entries show no effect beyond the scatter of the controls.
Compound: CN[C@@H]1C[C@H]2O[C@@](C)([C@@H]1OC)n1c3ccccc3c3c4c(c5c6ccccc6n2c5c31)C(=O)NC4 [staurosporine]
Assay: log2 fold change of tryptic peptide abundance, ligand vs vehicle (limited proteolysis) (log2 ratio); higher = more trypsin-susceptible (destabilized)
Conditions: ligand concentration: 20 uM; sample: mouse liver crude lysate; replicate design: treated separately

Sequences of proteins named here, by UniProt entry; tags and fusion partners are left off. A change or cut given only in a name is not applied to a line headed by its entry.
UniProt A2TJV2: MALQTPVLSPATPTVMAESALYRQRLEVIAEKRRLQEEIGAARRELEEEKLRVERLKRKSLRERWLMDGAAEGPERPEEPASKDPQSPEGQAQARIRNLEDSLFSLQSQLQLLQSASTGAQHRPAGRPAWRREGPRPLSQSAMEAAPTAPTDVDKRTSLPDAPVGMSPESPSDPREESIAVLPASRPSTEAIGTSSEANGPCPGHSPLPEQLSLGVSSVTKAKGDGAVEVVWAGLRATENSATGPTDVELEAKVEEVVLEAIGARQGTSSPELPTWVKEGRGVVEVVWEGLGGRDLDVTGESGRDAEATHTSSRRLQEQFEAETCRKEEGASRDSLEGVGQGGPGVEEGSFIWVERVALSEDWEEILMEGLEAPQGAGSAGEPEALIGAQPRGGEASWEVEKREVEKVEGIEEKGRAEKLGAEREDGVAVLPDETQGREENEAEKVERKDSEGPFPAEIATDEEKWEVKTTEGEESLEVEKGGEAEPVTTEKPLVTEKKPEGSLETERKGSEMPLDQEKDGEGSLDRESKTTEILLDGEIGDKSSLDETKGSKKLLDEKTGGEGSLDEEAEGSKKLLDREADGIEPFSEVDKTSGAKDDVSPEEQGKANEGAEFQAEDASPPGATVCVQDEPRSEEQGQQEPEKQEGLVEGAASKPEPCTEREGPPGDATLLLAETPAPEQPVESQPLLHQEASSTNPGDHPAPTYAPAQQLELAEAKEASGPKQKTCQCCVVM
UniProt B1AXP6: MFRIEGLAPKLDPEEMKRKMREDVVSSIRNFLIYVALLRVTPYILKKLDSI
UniProt B1AVZ0: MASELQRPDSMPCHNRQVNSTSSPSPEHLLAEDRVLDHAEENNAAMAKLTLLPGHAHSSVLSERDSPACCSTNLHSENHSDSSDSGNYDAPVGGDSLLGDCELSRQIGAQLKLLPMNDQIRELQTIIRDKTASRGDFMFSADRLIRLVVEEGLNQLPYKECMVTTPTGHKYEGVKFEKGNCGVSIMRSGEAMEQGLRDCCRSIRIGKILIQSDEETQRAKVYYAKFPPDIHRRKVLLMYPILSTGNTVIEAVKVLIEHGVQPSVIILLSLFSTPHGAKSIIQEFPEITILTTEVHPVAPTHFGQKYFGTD
UniProt A2ABV5: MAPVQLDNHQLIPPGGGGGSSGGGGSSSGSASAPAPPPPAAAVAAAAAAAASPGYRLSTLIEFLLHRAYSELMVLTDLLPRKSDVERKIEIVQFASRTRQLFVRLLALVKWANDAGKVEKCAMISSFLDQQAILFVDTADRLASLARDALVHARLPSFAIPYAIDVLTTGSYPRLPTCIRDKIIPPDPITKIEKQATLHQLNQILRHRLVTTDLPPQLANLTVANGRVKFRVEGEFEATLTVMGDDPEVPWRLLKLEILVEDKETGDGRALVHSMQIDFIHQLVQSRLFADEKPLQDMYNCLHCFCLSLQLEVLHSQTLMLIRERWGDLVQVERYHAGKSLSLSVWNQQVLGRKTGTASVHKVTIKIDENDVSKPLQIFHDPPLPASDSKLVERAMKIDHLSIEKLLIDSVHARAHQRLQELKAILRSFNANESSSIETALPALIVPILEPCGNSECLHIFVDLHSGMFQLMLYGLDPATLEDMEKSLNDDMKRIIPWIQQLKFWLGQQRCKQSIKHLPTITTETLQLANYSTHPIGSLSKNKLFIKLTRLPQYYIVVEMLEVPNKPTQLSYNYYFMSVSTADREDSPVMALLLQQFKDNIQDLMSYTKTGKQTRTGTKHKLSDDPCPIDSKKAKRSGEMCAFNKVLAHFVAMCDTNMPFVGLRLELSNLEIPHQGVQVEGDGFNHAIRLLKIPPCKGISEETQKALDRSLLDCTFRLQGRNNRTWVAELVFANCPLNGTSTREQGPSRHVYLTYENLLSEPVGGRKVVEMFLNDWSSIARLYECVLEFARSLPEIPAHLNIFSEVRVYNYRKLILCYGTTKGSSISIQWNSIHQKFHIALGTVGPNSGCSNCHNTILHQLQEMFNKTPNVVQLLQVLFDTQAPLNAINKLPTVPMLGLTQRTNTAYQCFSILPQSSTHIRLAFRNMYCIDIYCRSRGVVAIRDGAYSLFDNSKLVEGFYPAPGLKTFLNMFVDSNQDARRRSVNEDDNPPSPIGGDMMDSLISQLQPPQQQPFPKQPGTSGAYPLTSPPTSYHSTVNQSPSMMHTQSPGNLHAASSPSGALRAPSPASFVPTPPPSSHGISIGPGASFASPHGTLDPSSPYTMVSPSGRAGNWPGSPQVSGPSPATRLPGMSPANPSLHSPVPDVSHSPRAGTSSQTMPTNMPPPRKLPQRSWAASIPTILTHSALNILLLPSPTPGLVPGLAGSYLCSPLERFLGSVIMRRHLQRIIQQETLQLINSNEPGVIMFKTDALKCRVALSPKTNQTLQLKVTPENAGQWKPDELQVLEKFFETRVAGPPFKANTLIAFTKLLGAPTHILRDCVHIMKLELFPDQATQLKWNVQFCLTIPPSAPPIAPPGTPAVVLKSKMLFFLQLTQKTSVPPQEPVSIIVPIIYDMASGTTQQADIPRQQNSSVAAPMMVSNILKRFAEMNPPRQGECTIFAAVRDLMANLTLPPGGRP
UniProt A9JSM3: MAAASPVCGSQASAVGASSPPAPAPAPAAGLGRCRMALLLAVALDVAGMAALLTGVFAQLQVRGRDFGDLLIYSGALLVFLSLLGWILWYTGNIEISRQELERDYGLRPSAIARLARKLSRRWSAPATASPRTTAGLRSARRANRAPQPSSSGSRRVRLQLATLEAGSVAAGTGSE
UniProt A2AJQ3: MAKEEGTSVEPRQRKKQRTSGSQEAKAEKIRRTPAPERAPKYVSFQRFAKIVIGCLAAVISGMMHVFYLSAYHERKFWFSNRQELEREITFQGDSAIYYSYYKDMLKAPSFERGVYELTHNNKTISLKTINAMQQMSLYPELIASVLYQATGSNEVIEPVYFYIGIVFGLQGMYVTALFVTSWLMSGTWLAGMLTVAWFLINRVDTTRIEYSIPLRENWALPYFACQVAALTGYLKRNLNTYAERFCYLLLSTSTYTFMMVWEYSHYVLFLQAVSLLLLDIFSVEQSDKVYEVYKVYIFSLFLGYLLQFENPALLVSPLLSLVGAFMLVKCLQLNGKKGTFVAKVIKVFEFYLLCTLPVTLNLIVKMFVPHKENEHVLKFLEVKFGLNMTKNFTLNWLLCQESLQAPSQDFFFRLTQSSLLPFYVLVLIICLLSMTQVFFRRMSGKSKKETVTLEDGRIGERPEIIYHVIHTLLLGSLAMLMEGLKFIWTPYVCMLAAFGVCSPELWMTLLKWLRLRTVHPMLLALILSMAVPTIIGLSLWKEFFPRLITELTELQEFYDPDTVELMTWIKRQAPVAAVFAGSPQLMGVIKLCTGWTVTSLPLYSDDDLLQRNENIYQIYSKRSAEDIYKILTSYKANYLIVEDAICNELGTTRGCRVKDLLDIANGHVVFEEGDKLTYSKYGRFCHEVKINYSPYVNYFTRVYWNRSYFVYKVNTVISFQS
UniProt A2ADY9: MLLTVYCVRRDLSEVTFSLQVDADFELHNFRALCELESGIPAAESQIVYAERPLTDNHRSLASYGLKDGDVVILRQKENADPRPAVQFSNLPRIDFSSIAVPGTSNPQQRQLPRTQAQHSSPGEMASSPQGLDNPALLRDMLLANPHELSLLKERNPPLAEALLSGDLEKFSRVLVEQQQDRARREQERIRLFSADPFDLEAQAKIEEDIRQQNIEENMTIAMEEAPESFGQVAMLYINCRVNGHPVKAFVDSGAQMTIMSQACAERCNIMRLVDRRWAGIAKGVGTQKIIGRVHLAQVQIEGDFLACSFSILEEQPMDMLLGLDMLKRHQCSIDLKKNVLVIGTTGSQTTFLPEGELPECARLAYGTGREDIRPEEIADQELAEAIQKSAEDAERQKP
UniProt A2A3V1: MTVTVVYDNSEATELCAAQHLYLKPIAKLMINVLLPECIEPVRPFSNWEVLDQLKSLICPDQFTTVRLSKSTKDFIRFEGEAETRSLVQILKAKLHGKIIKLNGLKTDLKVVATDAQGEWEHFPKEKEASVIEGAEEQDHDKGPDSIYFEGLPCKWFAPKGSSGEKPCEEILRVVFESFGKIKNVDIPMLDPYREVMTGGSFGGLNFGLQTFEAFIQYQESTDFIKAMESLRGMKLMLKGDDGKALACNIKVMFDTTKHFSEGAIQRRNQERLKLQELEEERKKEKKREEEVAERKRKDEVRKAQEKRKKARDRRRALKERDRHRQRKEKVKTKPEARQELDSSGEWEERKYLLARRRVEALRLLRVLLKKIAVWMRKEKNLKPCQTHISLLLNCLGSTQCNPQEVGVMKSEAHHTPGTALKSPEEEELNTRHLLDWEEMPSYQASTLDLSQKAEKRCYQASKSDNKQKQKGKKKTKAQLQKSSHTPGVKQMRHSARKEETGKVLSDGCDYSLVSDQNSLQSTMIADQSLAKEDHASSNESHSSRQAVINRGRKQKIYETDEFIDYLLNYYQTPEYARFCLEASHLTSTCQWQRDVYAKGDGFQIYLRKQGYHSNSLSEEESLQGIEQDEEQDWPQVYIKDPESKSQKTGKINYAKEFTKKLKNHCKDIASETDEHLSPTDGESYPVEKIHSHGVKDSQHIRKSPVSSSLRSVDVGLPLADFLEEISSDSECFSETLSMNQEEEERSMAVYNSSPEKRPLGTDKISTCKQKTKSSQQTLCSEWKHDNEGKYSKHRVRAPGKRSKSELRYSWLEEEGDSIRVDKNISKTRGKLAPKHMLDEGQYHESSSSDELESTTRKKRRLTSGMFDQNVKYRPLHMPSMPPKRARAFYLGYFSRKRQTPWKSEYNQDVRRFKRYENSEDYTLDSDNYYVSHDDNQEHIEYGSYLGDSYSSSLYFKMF

For “UniProt A2A6A1 (peptide sequence: SQSPHYFQSGR, peptide start residue: 1037)”, the log2 fold change was 0.355.

For “UniProt A2ARP1 (peptide sequence: VYTVGPDYAHAEAR, peptide start residue: 255)”, the log2 fold change was -0.185.

“UniProt A2TJV2 (peptide sequence: RLQEEIGAAR, peptide start residue: 34)” gave a log2 fold change of 0.0235.

“UniProt A2AWA9 (peptide sequence: QKVDDCDRCR, peptide start residue: 959)” gave a log2 fold change of 0.515.

“UniProt B1AXP6 (peptide sequence: LDPEEMKR, peptide start residue: 11)” showed a log2 fold change of 0.109.

For “UniProt B2RU80 (peptide sequence: DRPLSVHLNLGQK, peptide start residue: 1663)”, the log2 fold change was -0.355.

Work on “UniProt B2RRE7 (peptide sequence: LQRPKEESSEDENEVSNILR, peptide start residue: 1009)” yielded a log2 fold change of -0.558.

“UniProt A2AB59 (peptide sequence: SRDGSEYLIQHDSEAIISTWHK, peptide start residue: 565)” gave a log2 fold change of -0.000886.

In the case of “UniProt A2AQ25 (peptide sequence: TLDSLEQTIK, peptide start residue: 1667)”, the log2 fold change is reported as -0.191.

“UniProt B1AVY7 (peptide sequence: SKTTITNLKIPEGGTGDSGR, peptide start residue: 31)” gave a log2 fold change of 0.354.

For “UniProt B1AVZ0 (peptide sequence: QVNSTSSPSPEHLLAEDR, peptide start residue: 17)”, the log2 fold change was 0.404.

“UniProt B2RQC2 (peptide sequence: AALSVQDSSHSLPER, peptide start residue: 1144)” showed a log2 fold change of 0.693.

Target “UniProt A2AUY4 (peptide sequence: ALQKQIQK, peptide start residue: 1663)” has a log2 fold change of -0.799.

In the case of “UniProt A2AJ88 (peptide sequence: SCSVPLPSNHGEVDELR, peptide start residue: 377)”, the log2 fold change is reported as -0.29.

For “UniProt A2A791 (peptide sequence: AVAPQQGLLDR, peptide start residue: 261)”, the log2 fold change was 0.184.

For “UniProt A1A5B6 (peptide sequence: DHLVQLSHPATLISSK, peptide start residue: 576)”, the log2 fold change was 0.226.

In the case of “A0A338P6K9 (peptide sequence: NTSAPLTVLDATSDKTK, peptide start residue: 1297), A0A338P6K9”, the log2 fold change is reported as -0.365.

“UniProt A2A6T1 (peptide sequence: LQTLVGVLR, peptide start residue: 195)” showed a log2 fold change of 0.268.

Work on “UniProt A2ABV5 (peptide sequence: LPGMSPANPSLHSPVPDVSHSPR, peptide start residue: 1129)” yielded a log2 fold change of -0.267.

In the case of “UniProt A2A8U2 (peptide sequence: IKQLAAFTPR, peptide start residue: 132)”, the log2 fold change is reported as 0.522.

With “UniProt B1AY10 (peptide sequence: NYSSSPPCHLPR, peptide start residue: 47)” the log2 fold change was -0.496.

With “UniProt A2ASQ1 (peptide sequence: GHQLLTQEHVLR, peptide start residue: 1681)” the log2 fold change was 0.109.

“UniProt A2A4P0 (peptide sequence: VAAMSVAKR, peptide start residue: 645)” showed a log2 fold change of 0.422.

Work on “UniProt A2A699 (peptide sequence: AWFVSLDGR, peptide start residue: 650)” yielded a log2 fold change of -0.218.

With “UniProt A1L3P4 (peptide sequence: RFMGNSSEDALDR, peptide start residue: 652)” the log2 fold change was -0.138.

“UniProt A6X935 (peptide sequence: GSEMVVAGK, peptide start residue: 488)” showed a log2 fold change of -0.169.

“UniProt A2A5R2 (peptide sequence: SHEMFVTAIK, peptide start residue: 431)” gave a log2 fold change of 0.449.

For “UniProt A9JSM3 (peptide sequence: DYGLRPSAIAR, peptide start residue: 104)”, the log2 fold change was 0.391.

For “UniProt A6H6A9 (peptide sequence: VVITVQQLSNK, peptide start residue: 313)”, the log2 fold change was 0.564.

In the case of “UniProt A2AJQ3 (peptide sequence: AKEEGTSVEPR, peptide start residue: 2)”, the log2 fold change is reported as -0.0298.

Target “UniProt A2A9T0 (peptide sequence: ALVETHLR, peptide start residue: 153)” has a log2 fold change of 0.19.

Target “UniProt B2RS91 (peptide sequence: FGGTVTEVLLK, peptide start residue: 50)” has a log2 fold change of -0.269.

For “UniProt A3KFM7 (peptide sequence: NFSYLHCK, peptide start residue: 323)”, the log2 fold change was -0.93.

With “A0A1W2P884 (peptide sequence: LTEALLENQR, peptide start residue: 669), A0A1W2P884” the log2 fold change was -0.226.

Target “UniProt B1AZA5 (peptide sequence: GGPAEAPSPR, peptide start residue: 5)” has a log2 fold change of -0.0642.

For “UniProt A2AI08 (peptide sequence: RSDFLQK, peptide start residue: 226)”, the log2 fold change was -0.848.

“UniProt A2AN08 (peptide sequence: LFQLTEK, peptide start residue: 1433)” was tested, and the log2 fold change was 0.238.

Work on “UniProt A2ALU4 (peptide sequence: CLFDSLQPER, peptide start residue: 1470)” yielded a log2 fold change of 0.246.

In the case of “UniProt A2ADY9 (peptide sequence: SAEDAERQKP, peptide start residue: 390)”, the log2 fold change is reported as -0.597.

Target “UniProt A2A995 (peptide sequence: NDDPKTEVAGR, peptide start residue: 528)” has a log2 fold change of 0.295.

Work on “UniProt A2CG63 (peptide sequence: KYNGLEEK, peptide start residue: 880)” yielded a log2 fold change of -0.607.

Work on “UniProt B2RQE8 (peptide sequence: VEAVHALVHKLPEKNR, peptide start residue: 456)” yielded a log2 fold change of 0.545.

Target “UniProt A2A8L1 (peptide sequence: VLIFSQMTK, peptide start residue: 1062)” has a log2 fold change of 0.407.

“UniProt A2A3V1 (peptide sequence: YSWLEEEGDSIRVDK, peptide start residue: 809)” showed a log2 fold change of 0.414.

Target “UniProt B1AQJ2 (peptide sequence: FGNQEDAHEFLR, peptide start residue: 203)” has a log2 fold change of -0.862.

For “UniProt A2A9C3 (peptide sequence: AAAHIHSSSGRPTCLR, peptide start residue: 1722)”, the log2 fold change was 0.809.

“UniProt A2A5Z6 (peptide sequence: THLHTPPDLPEGYEQR, peptide start residue: 245)” gave a log2 fold change of -0.126.

With “UniProt A2APT9 (peptide sequence: LIPGVGGSCVGDK, peptide start residue: 172)” the log2 fold change was -0.0808.

For “UniProt A2AL36 (peptide sequence: SEVKDEIR, peptide start residue: 2165)”, the log2 fold change was 0.54.

For “UniProt A2AM29 (peptide sequence: VKIESETSEK, peptide start residue: 339)”, the log2 fold change was -0.0199.

With “UniProt B2RR83 (peptide sequence: FADNTHR, peptide start residue: 664)” the log2 fold change was -0.908.

For “UniProt A2ASS6 (peptide sequence: EPAAPPQVPEAPK, peptide start residue: 10224)”, the log2 fold change was 0.133.

“UniProt A2ARI4 (peptide sequence: YAYNLPR, peptide start residue: 942)” gave a log2 fold change of -0.00197.

Work on “UniProt A2AKK5 (peptide sequence: KAFHRLMK, peptide start residue: 87)” yielded a log2 fold change of 0.32.

In the case of “UniProt B1AXD8 (peptide sequence: LAEQYDAFVK, peptide start residue: 173)”, the log2 fold change is reported as 0.099.

With “UniProt A2APY7 (peptide sequence: LNDVMSHEK, peptide start residue: 334)” the log2 fold change was -0.167.

Target “UniProt A2ACJ2 (peptide sequence: MAMANAGQK, peptide start residue: 444)” has a log2 fold change of -0.313.

In the case of “UniProt A2APV2 (peptide sequence: AIHVFDLK, peptide start residue: 718)”, the log2 fold change is reported as 0.176.

“UniProt B0V2N1 (peptide sequence: SGEGFIDFIGQVHK, peptide start residue: 1816)” showed a log2 fold change of -0.0253.

Target “UniProt A2A8L5 (peptide sequence: FVSANLPCNK, peptide start residue: 1647)” has a log2 fold change of -0.288.

“UniProt A4UUI3 (peptide sequence: IKTLREGIK, peptide start residue: 284)” showed a log2 fold change of -0.497.

With “UniProt B1AUE5 (peptide sequence: ASQGSLLPGGR, peptide start residue: 124)” the log2 fold change was -0.0262.

Target “UniProt A2AF53 (peptide sequence: VVITQSPGK, peptide start residue: 328)” has a log2 fold change of -0.152.

For “UniProt A2AGT5 (peptide sequence: DQVLAMLEK, peptide start residue: 1067)”, the log2 fold change was -0.338.

In the case of “UniProt A2AIW0 (peptide sequence: TLQISYEALKDENSK, peptide start residue: 264)”, the log2 fold change is reported as 0.315.

“UniProt A2AS55 (peptide sequence: LRDLQEELAVAR, peptide start residue: 19)” gave a log2 fold change of -0.557.

In the case of “UniProt A2AG50 (peptide sequence: KSDASLEVK, peptide start residue: 599)”, the log2 fold change is reported as -0.178.
